The supplement of paper PMC6078165
± gives the standard deviation of the averaged measurements. Values are relative to the signal before dosing, not to a vehicle control; the signal also falls without drug.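 Fibroblast labels denote human fibroblasts, mainly primary ones from uterus (C12385, HUF), lung (H6013), bone (Hs27A), adrenal (HADF) and skin (WS1), plus mammary HMF and breast cancer-associated Hs343T. Cancer cells are basal-like or mesenchymal-like triple-negative breast cancer lines. A hit is a response shift exceeding 3x replicate standard deviation. The tissue of the other fibroblasts is not given here.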

Tested on: BT20
Test: relative JC-1 red fluorescence (viability) vs pre-drug, coculture with fibroblast (fraction); higher = more viable cancer cells
Experimental: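 JC-1 labelled TNBC cells cocultured 1:1 (1,500 cells each) with CellTrace Violet stained primary or stromal fibroblasts in 384-well plates in FluoroBrite medium, treated with one of 42 anticancer drugs at 0.1, 1, 10 or 100 uM. JC-1 red fluorescence (mitochondrial integrity in cancer cells only) was read by plate reader every 8 h for 72 h. Values are normalised to each well's pre-drug value. The stock of one drug was tenfold lower, so its dose labels may be too high.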

CO[C@H]1C[C@@H]2CC[C@@H](C)[C@@](O)(O2)C(=O)C(=O)N2CCCC[C@H]2C(=O)O[C@H]([C@H](C)C[C@@H]2CC[C@@H](OCCO)[C@H](OC)C2)CC(=O)[C@H](C)/C=C(\C)[C@@H](O)[C@@H](OC)C(=O)[C@H](C)C[C@H](C)/C=C/C=C/C=C/1C [Everolimus]
relative JC-1 red fluorescence
Conditions	8 h	16 h	24 h	32 h	40 h	48 h	56 h	64 h	72 h
0.1 µM, coculture fibroblast: C12385	0.8906 ± 0.002	0.76 ± 0.028	0.687 ± 0.028	0.623 ± 0.036	0.554 ± 0.027	0.52 ± 0.028	0.487 ± 0.024	0.463 ± 0.027	0.453 ± 0.017
0.1 µM, coculture fibroblast: H6013	0.897 ± 0.045	0.856 ± 0.029	0.8179 ± 0.0027	0.789 ± 0.021	0.753 ± 0.029	0.74 ± 0.025	0.749 ± 0.017	0.7412 ± 0.0048	0.7283 ± 0.003
0.1 µM, coculture fibroblast: H6019	0.865 ± 0.034	0.842 ± 0.037	0.845 ± 0.04	0.78 ± 0.013	0.737 ± 0.021	0.7231 ± 0.0047	0.6951 ± 0.0037	0.682 ± 0.021	0.671 ± 0.033
0.1 µM, coculture fibroblast: H6076	0.9801 ± 0.0043	0.8676 ± 0.0017	0.789 ± 0.015	0.765 ± 0.021	0.735 ± 0.026	0.715 ± 0.021	0.72 ± 0.03	0.721 ± 0.03	0.709 ± 0.023
0.1 µM, coculture fibroblast: H6231	0.908 ± 0.039	0.938 ± 0.046	0.821 ± 0.034	0.743 ± 0.0092	0.681 ± 0.014	0.6278 ± 0.004	0.5934 ± 0.00087	0.559 ± 0.007	0.534 ± 0.011
0.1 µM, coculture fibroblast: HADF	0.977 ± 0.023	0.8586 ± 0.0046	0.821 ± 0.059	0.786 ± 0.036	0.757 ± 0.064	0.71 ± 0.069	0.702 ± 0.096	0.685 ± 0.1	0.655 ± 0.1
0.1 µM, coculture fibroblast: HCFa	0.891 ± 0.015	0.815 ± 0.024	0.782 ± 0.036	0.731 ± 0.029	0.688 ± 0.036	0.662 ± 0.033	0.642 ± 0.031	0.615 ± 0.036	0.581 ± 0.03
0.1 µM, coculture fibroblast: HCPF	0.77 ± 0.095	0.9197 ± 0.0088	0.85 ± 0.031	0.794 ± 0.032	0.764 ± 0.041	0.725 ± 0.04	0.691 ± 0.047	0.686 ± 0.061	0.651 ± 0.06
0.1 µM, coculture fibroblast: HHSteC	0.911 ± 0.027	0.854 ± 0.038	0.851 ± 0.052	0.791 ± 0.087	0.754 ± 0.099	0.726 ± 0.1	0.71 ± 0.1	0.687 ± 0.11	0.667 ± 0.11
0.1 µM, coculture fibroblast: HMF	0.9751 ± 0.0057	0.876 ± 0.018	0.776 ± 0.015	0.714 ± 0.014	0.663 ± 0.018	0.614 ± 0.02	0.584 ± 0.016	0.562 ± 0.017	0.544 ± 0.027
0.1 µM, coculture fibroblast: HPFa	0.9545 ± 0.0025	0.839 ± 0.0096	0.815 ± 0.02	0.737 ± 0.017	0.698 ± 0.015	0.651 ± 0.017	0.62 ± 0.0095	0.5983 ± 0.0051	0.562 ± 0.011
0.1 µM, coculture fibroblast: HUF	0.888 ± 0.031	0.798 ± 0.034	0.771 ± 0.045	0.694 ± 0.051	0.65 ± 0.052	0.609 ± 0.048	0.585 ± 0.05	0.574 ± 0.052	0.551 ± 0.05
0.1 µM, coculture fibroblast: Hs5	0.794 ± 0.11	0.9439 ± 0.0064	0.844 ± 0.03	0.788 ± 0.03	0.733 ± 0.039	0.698 ± 0.04	0.661 ± 0.042	0.627 ± 0.04	0.596 ± 0.036
0.1 µM, coculture fibroblast: Hs27A	0.851 ± 0.031	0.827 ± 0.16	0.864 ± 0.052	0.856 ± 0.053	0.814 ± 0.046	0.785 ± 0.036	0.763 ± 0.023	0.734 ± 0.015	0.6906 ± 0.0038
0.1 µM, coculture fibroblast: Hs343T	0.935 ± 0.013	0.904 ± 0.053	0.804 ± 0.036	0.759 ± 0.027	0.703 ± 0.036	0.66 ± 0.045	0.606 ± 0.024	0.585 ± 0.02	0.561 ± 0.021
0.1 µM, coculture fibroblast: WS1	0.8614 ± 0.0039	0.7752 ± 0.0063	0.7265 ± 0.0022	0.6564 ± 0.0056	0.592 ± 0.0066	0.554 ± 0.0059	0.521 ± 0.0058	0.49274 ± 0.00043	0.475 ± 0.0049
1 µM, coculture fibroblast: C12385	0.904 ± 0.024	0.859 ± 0.057	0.796 ± 0.089	0.77 ± 0.13	0.741 ± 0.15	0.72 ± 0.16	0.707 ± 0.17	0.693 ± 0.19	0.693 ± 0.2
1 µM, coculture fibroblast: H6013	0.99 ± 0.012	0.942 ± 0.033	0.936 ± 0.066	0.92 ± 0.091	0.905 ± 0.12	0.906 ± 0.13	0.839 ± 0.045	0.7791 ± 0.0056	0.81 ± 0.049
1 µM, coculture fibroblast: H6019	0.8512 ± 0.0023	0.8094 ± 0.0079	0.766 ± 0.01	0.716 ± 0.0089	0.674 ± 0.013	0.66 ± 0.015	0.633 ± 0.015	0.6159 ± 0.004	0.606 ± 0.0097
1 µM, coculture fibroblast: H6076	0.899 ± 0.13	0.884 ± 0.02	0.816 ± 0.016	0.789 ± 0.0094	0.761 ± 0.0042	0.7435 ± 0.001	0.7285 ± 0.0034	0.729 ± 0.0093	0.714 ± 0.0088
1 µM, coculture fibroblast: H6231	0.799 ± 0.1	0.9472 ± 0.0063	0.8498 ± 0.0063	0.7806 ± 0.0071	0.736 ± 0.02	0.692 ± 0.033	0.652 ± 0.024	0.634 ± 0.032	0.608 ± 0.019
1 µM, coculture fibroblast: HADF	0.9876 ± 0.0035	0.934 ± 0.021	0.86 ± 0.052	0.836 ± 0.065	0.821 ± 0.083	0.8 ± 0.098	0.788 ± 0.11	0.779 ± 0.11	0.761 ± 0.13
1 µM, coculture fibroblast: HCFa	0.9238 ± 0.0085	0.8564 ± 0.0018	0.861 ± 0.019	0.823 ± 0.02	0.784 ± 0.021	0.762 ± 0.014	0.731 ± 0.012	0.725 ± 0.015	0.6817 ± 0.0016
1 µM, coculture fibroblast: HCPF	0.82 ± 0.076	0.9165 ± 0.0077	0.85 ± 0.011	0.807 ± 0.017	0.7655 ± 0.0043	0.73 ± 0.0088	0.6786 ± 0.0029	0.6576 ± 0.0052	0.6213 ± 0.0022
1 µM, coculture fibroblast: HHSteC	0.937 ± 0.024	0.9 ± 0.089	0.873 ± 0.1	0.797 ± 0.097	0.738 ± 0.079	0.7 ± 0.061	0.656 ± 0.033	0.621 ± 0.02	0.591 ± 0.011
1 µM, coculture fibroblast: HMF	0.887 ± 0.13	0.8938 ± 0.0082	0.802 ± 0.019	0.749 ± 0.019	0.694 ± 0.017	0.646 ± 0.027	0.61 ± 0.034	0.584 ± 0.032	0.564 ± 0.032
1 µM, coculture fibroblast: HPFa	0.9464 ± 0.0082	0.874 ± 0.037	0.885 ± 0.068	0.82 ± 0.081	0.799 ± 0.094	0.771 ± 0.094	0.766 ± 0.1	0.75 ± 0.12	0.724 ± 0.12
1 µM, coculture fibroblast: HUF	0.8948 ± 0.0059	0.7994 ± 0.0023	0.778 ± 0.024	0.705 ± 0.019	0.658 ± 0.024	0.615 ± 0.027	0.595 ± 0.035	0.575 ± 0.038	0.568 ± 0.04
1 µM, coculture fibroblast: Hs5	0.807 ± 0.066	0.899 ± 0.023	0.844 ± 0.019	0.804 ± 0.014	0.7647 ± 0.0064	0.7358 ± 0.0059	0.698 ± 0.0047	0.668 ± 0.0067	0.6409 ± 0.0042
1 µM, coculture fibroblast: Hs27A	0.906 ± 0.011	0.86 ± 0.17	0.852 ± 0.057	0.861 ± 0.047	0.817 ± 0.066	0.806 ± 0.064	0.796 ± 0.07	0.784 ± 0.074	0.75 ± 0.071
1 µM, coculture fibroblast: Hs343T	0.897 ± 0.1	0.892 ± 0.071	0.794 ± 0.065	0.735 ± 0.06	0.667 ± 0.057	0.624 ± 0.056	0.565 ± 0.047	0.542 ± 0.056	0.505 ± 0.059
1 µM, coculture fibroblast: WS1	0.884 ± 0.009	0.884 ± 0.022	0.874 ± 0.023	0.8168 ± 0.0072	0.7799 ± 0.0011	0.7778 ± 0.0077	0.7547 ± 0.007	0.7407 ± 0.0058	0.7462 ± 0.003
